In the supplement of paper PMC8551327:
This is one part of the list. No stated cut-off is given here; in the data, active = 1.25 or more and inactive = the rest. Many values rest on one well or one pass, so single values are uncertain.

These compounds were tested on Kcc2-LUC knock-in mouse primary cortical neurons (Kcc2 promoter reporter) (assay: Kcc2 promoter-driven luciferase activity relative to vehicle control (fold of vehicle (ratio)); higher = stronger Kcc2 promoter activation (Kcc2 expression enhancer)). Settings: 100 nM; 48 h.

Row | SMILES | Kcc2 promoter-driven luciferase activity
1 | CCSC(=O)N1c2ccc(OC)cc2C=CC1C#N (stereo not drawn) [S-ethyl 2-cyano-6-methoxy-2H-quinoline-1-carbothioate] | active: 1.58
2 | O=C1C(Cl)=C(N2CCN(C3=C(Cl)C(=O)c4ccccc4C3=O)CC2)C(=O)c2ccccc21 [2,2'-Piperazine-1,4-diylbis(3-chloronaphthoquinone)] | inactive: 0.41
3 | O=C(Nc1cccc(C(F)(F)F)c1)C(=O)C(C(=O)c1ccc(Cl)c(Cl)c1)C1OC(=O)c2ccccc21 (stereo not drawn) | inactive: 0.93
